Results are given in words; binding and its absence hold for the method and conditions named. In cells and extracts the contact can be indirect. A result given as binding can be weak or reduced; the word gives no strength.
Biological target: ITK-Y511F, fluorescent protein chimera
Test: co-IP; Jurkat (JTag) cells transfected with GFP-ITK constructs, stimulated or not with 5 ug/mL anti-CD3e OKT3 cross-linked with rabbit anti-mouse IgG for 1 minute at 37°C, lysed; FP-ITK immunoprecipitated with anti-GFP IgG; SLP-76 and ITK immunoblotted; association index by densitometry against the nonstimulated lane

- binding: binds
B1: SLP-76 (protein, UniProt Q13094 1-533)
chain: MALRNVPFRSEVLGWDPDSLADYFKKLNYKDCEKAVKKYHIDGARFLNLTENDIQKFPKLRVPILSKLSQEINKNEERRSIFTRKPQVPRFPEETESHEEDNGGWSSFEEDDYESPNDDQDGEDDGDYESPNEEEEAPVEDDADYEPPPSNDEEALQNSILPAKPFPNSNSMYIDRPPSGKTPQQPPVPPQRPMAALPPPPAGRNHSPLPPPQTNHEEPSRSRNHKTAKLPAPSIDRSTKPPLDRSLAPFDREPFTLGKKPPFSDKPSIPAGRSLGEHLPKIQKPPLPPTTERHERSSPLPGKKPPVPKHGWGPDRRENDEDDVHQRPLPQPALLPMSSNTFPSRSTKPSPMNPLPSSHMPGAFSESNSSFPQSASLPPYFSQGPSNRPPIRAEGRNFPLPLPNKPRPPSPAEEENSLNEEWYVSYITRPEAEAALRKINQDGTFLVRDSSKKTTTNPYVLMVLYKDKVYNIQIRYQKESQVYLLGTGLRGKEDFLSVSDIIDYFRKMPLLLIDGKNRGSRYQCTLTHAAGYP

— PMC3357558
